Measurements reported in US20060073595.
Results from cells or extracts need not show a direct contact. For at least one entry, the source does not settle the construct or the ends of the probe.

Assays:
[1] = target: Lac repressor (LacI), wild type, M45-tagged (Escherichia coli) (UniProt P03023); test: EMSA; details: 293 whole cell extract; supershifted by M45 antibody; protein in a lysate after overexpression; label: radiolabel
[2] = target: Lac repressor X86 mutant, M45-tagged S61L (Escherichia coli) (UniProt P03023); test: EMSA; details: 293 whole cell extract; supershifted by M45 antibody; protein in a lysate after overexpression; protein details: M45 epitope tag, expressed in 293 cells; label: radiolabel

Sequence | binding result [1] | binding result [2]
TCGACAATTGTGAGCGCTCACAATTTGTCTAGGGCCGCGGGGACTTTGACCGTTTACGTGGAGG (double strand) [AV-VII(lac)2 dimer (head-to-tail dimer of the printed unit)] | binds | binds
TCGACAATTGTGAGCGCTCACAATTC (double strand) [lac binding site monomer (symmetric)] | binds | binds
